Values from PubChem BioAssay AID1224831 (NIAID, 2016).
The deposit covers about 3,500 reagents; below is an unselected part. Of all reagents, 731 (21%) got an active call. 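Active means either lowered or raised reporter signal; the gene-median score did not drive the per-siRNA calls.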 A number with no mark means an inactive call. The numbers tell different reagents against one gene apart.

Purpose: 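Genes that support or restrain LPS-induced TNF-alpha reporter activity in macrophage-like cells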 (follow-up of hits)
Cells: human THP-1 B5 monocytic leukaemia cells carrying a TNF promoter luciferase reporter, made macrophage-like with PMA
Reagent: single siRNA against human genes, 50 nM
Time to read-out: about 68 h of knock-down, then 4 h LPS
Challenge: LPS (Salmonella minnesota, TLR-grade) at 10 ng/ml for 4 h; PMA 5 ng/ml present during knock-down
Read-out: 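Firefly to renilla luciferase ratio of a TNF promoter reporter after 4 h LPS, scaled to plate median, turned into robust z-score, averaged over replicates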
Scale: TNF reporter z-score: higher = stronger LPS-induced TNF reporter signal; z-score, median over gene's siRNAs: higher = stronger TNF reporter signal across the gene's siRNAs
Rule for the call: 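Two-sided call: reduced or raised TNF reporter signal counts as active once mean z reaches about -1 or below, or about 1.5 or above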
Meaning of the calls: active = changed TNF reporter (either direction); inactive = little change

The opening 5 entries, to show the layout:
HEXA (hexosaminidase subunit alpha) #1
- TNF reporter z-score, replicate mean: 1.96 (active)
- z-score, median over gene's siRNAs: 0.805

HEXA (hexosaminidase subunit alpha) #2
- TNF reporter z-score, replicate mean: -0.02
- z-score, median over gene's siRNAs: 0.805

HEXA (hexosaminidase subunit alpha) #3
- TNF reporter z-score, replicate mean: 0.28
- z-score, median over gene's siRNAs: 0.805

HEXA (hexosaminidase subunit alpha) #4
- TNF reporter z-score, replicate mean: 0.61
- z-score, median over gene's siRNAs: 0.805

HEXA (hexosaminidase subunit alpha) #5
- TNF reporter z-score, replicate mean: 1
- z-score, median over gene's siRNAs: 0.805

The listing, from the start:
HEXA (hexosaminidase subunit alpha) #1
- TNF reporter z-score, replicate mean: 1.96 (active)
- z-score, median over gene's siRNAs: 0.805

HEXA (hexosaminidase subunit alpha) #2
- TNF reporter z-score, replicate mean: -0.02
- z-score, median over gene's siRNAs: 0.805

HEXA (hexosaminidase subunit alpha) #3
- TNF reporter z-score, replicate mean: 0.28
- z-score, median over gene's siRNAs: 0.805

HEXA (hexosaminidase subunit alpha) #4
- TNF reporter z-score, replicate mean: 0.61
- z-score, median over gene's siRNAs: 0.805

HEXA (hexosaminidase subunit alpha) #5
- TNF reporter z-score, replicate mean: 1
- z-score, median over gene's siRNAs: 0.805

HEXA (hexosaminidase subunit alpha) #6
- TNF reporter z-score, replicate mean: 1.37
- z-score, median over gene's siRNAs: 0.805

APPL1 #1
- TNF reporter z-score, replicate mean: -1.28 (active)
- z-score, median over gene's siRNAs: -0.225

APPL1 #2
- TNF reporter z-score, replicate mean: 0.31
- z-score, median over gene's siRNAs: -0.225

APPL1 #3
- TNF reporter z-score, replicate mean: -0.36
- z-score, median over gene's siRNAs: -0.225

APPL1 #4
- TNF reporter z-score, replicate mean: -1.68 (active)
- z-score, median over gene's siRNAs: -0.225

APPL1 #5
- TNF reporter z-score, replicate mean: -0.09
- z-score, median over gene's siRNAs: -0.225

APPL1 #6
- TNF reporter z-score, replicate mean: -0.08
- z-score, median over gene's siRNAs: -0.225

LAMB3 (laminin subunit beta 3) #1
- TNF reporter z-score, replicate mean: 0.14
- z-score, median over gene's siRNAs: 0.67

LAMB3 (laminin subunit beta 3) #2
- TNF reporter z-score, replicate mean: 2.91 (active)
- z-score, median over gene's siRNAs: 0.67

LAMB3 (laminin subunit beta 3) #3
- TNF reporter z-score, replicate mean: 1.2
- z-score, median over gene's siRNAs: 0.67

LAMB3 (laminin subunit beta 3) #4
- TNF reporter z-score, replicate mean: -0.46
- z-score, median over gene's siRNAs: 0.67

LAMB3 (laminin subunit beta 3) #5
- TNF reporter z-score, replicate mean: 1.5 (active)
- z-score, median over gene's siRNAs: 0.67

LAMB3 (laminin subunit beta 3) #6
- TNF reporter z-score, replicate mean: -0.83
- z-score, median over gene's siRNAs: 0.67

PRSS23 (serine protease 23) #1
- TNF reporter z-score, replicate mean: 0.53
- z-score, median over gene's siRNAs: 0.205

PRSS23 (serine protease 23) #2
- TNF reporter z-score, replicate mean: -0.12
- z-score, median over gene's siRNAs: 0.205

PRSS23 (serine protease 23) #3
- TNF reporter z-score, replicate mean: 0.54
- z-score, median over gene's siRNAs: 0.205

PRSS23 (serine protease 23) #4
- TNF reporter z-score, replicate mean: -0.66
- z-score, median over gene's siRNAs: 0.205

PRSS23 (serine protease 23) #5
- TNF reporter z-score, replicate mean: -1.15 (active)
- z-score, median over gene's siRNAs: 0.205

PRSS23 (serine protease 23) #6
- TNF reporter z-score, replicate mean: 1.3
- z-score, median over gene's siRNAs: 0.205

HLA-DQA2 (major histocompatibility complex, class II, DQ alpha 2) #1
- TNF reporter z-score, replicate mean: -1.08 (active)
- z-score, median over gene's siRNAs: 0.08

HLA-DQA2 (major histocompatibility complex, class II, DQ alpha 2) #2
- TNF reporter z-score, replicate mean: 0.24
- z-score, median over gene's siRNAs: 0.08

HLA-DQA2 (major histocompatibility complex, class II, DQ alpha 2) #3
- TNF reporter z-score, replicate mean: 0.66
- z-score, median over gene's siRNAs: 0.08

HLA-DQA2 (major histocompatibility complex, class II, DQ alpha 2) #4
- TNF reporter z-score, replicate mean: -1.44 (active)
- z-score, median over gene's siRNAs: 0.08

HLA-DQA2 (major histocompatibility complex, class II, DQ alpha 2) #5
- TNF reporter z-score, replicate mean: -0.08
- z-score, median over gene's siRNAs: 0.08

HLA-DQA2 (major histocompatibility complex, class II, DQ alpha 2) #6
- TNF reporter z-score, replicate mean: 0.64
- z-score, median over gene's siRNAs: 0.08

KIR2DL5A #1
- TNF reporter z-score, replicate mean: 0.74
- z-score, median over gene's siRNAs: 0.045

KIR2DL5A #2
- TNF reporter z-score, replicate mean: -0.05
- z-score, median over gene's siRNAs: 0.045

KIR2DL5A #3
- TNF reporter z-score, replicate mean: 0.42
- z-score, median over gene's siRNAs: 0.045

KIR2DL5A #4
- TNF reporter z-score, replicate mean: 0.08
- z-score, median over gene's siRNAs: 0.045

KIR2DL5A #5
- TNF reporter z-score, replicate mean: -0.69
- z-score, median over gene's siRNAs: 0.045

KIR2DL5A #6
- TNF reporter z-score, replicate mean: 0.01
- z-score, median over gene's siRNAs: 0.045

GIMAP8 (GTPase, IMAP family member 8) #1
- TNF reporter z-score, replicate mean: -0.24
- z-score, median over gene's siRNAs: 0.66

GIMAP8 (GTPase, IMAP family member 8) #2
- TNF reporter z-score, replicate mean: 0.4
- z-score, median over gene's siRNAs: 0.66

GIMAP8 (GTPase, IMAP family member 8) #3
- TNF reporter z-score, replicate mean: 3.27 (active)
- z-score, median over gene's siRNAs: 0.66

GIMAP8 (GTPase, IMAP family member 8) #4
- TNF reporter z-score, replicate mean: 0.92
- z-score, median over gene's siRNAs: 0.66

GIMAP8 (GTPase, IMAP family member 8) #5
- TNF reporter z-score, replicate mean: 0.36
- z-score, median over gene's siRNAs: 0.66

GIMAP8 (GTPase, IMAP family member 8) #6
- TNF reporter z-score, replicate mean: 2.73 (active)
- z-score, median over gene's siRNAs: 0.66
